No constants are given. Whether binding was seen depends on the method and setting. In cells and extracts the contact can be indirect. Here binding means that the protein was enriched with, or labelled near, the bait; the list need not be complete.
How the values were obtained:
TbSec13 (T. brucei) = TbSec13 (T. brucei) (UniProt Q388I4); experiment: affinity purification with mass spectrometry; GFP-tagged Nup (in situ, one allele) as handle, from clarified lysate of cryomilled T. brucei on magnetic beads with polyclonal llama anti-GFP antibodies, 1 hr at 4°C, three washes with extraction buffer; extraction buffer chosen for each handle (S1 Table); SDS-PAGE, Coomassie, bands identified by MS
TbNup132 (T. brucei) = TbNup132 (T. brucei) (UniProt Q57XP4); experiment: as above

Substance | binding (TbSec13 (T. brucei)) | binding (TbNup132 (T. brucei))
TbNup132 (from UniProt Q57XP4) | binds | 
TbSec13 (from UniProt Q388I4) |  | binds

Source: paper PMC4758718
